Taken from: PubChem BioAssay AID1053208 (Peter MacCallum Cancer Centre, 2014)

Aim: 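Genes whose silencing cuts survival of bone tumour cells only with doxorubicin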 (primary screen)
System: mouse osteosarcoma cells, early-passage culture from an engineered mouse model of fibroblastic bone tumour
Reagent: siRNA pool against mouse genes, 40 nM
Duration: about 120 h (48 h before drug, then 72 h with drug)
Treatment: doxorubicin 100 nM for 72 h, roughly 30-40% inhibitory dose
Measured: 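Luminescent ATP signal taken as viability with or without 100 nM doxorubicin for 72 h; mean of two wells set against non-targeting siRNA and turned into robust z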
Reading the numbers: viability z-score with doxorubicin: higher = more viable cells under doxorubicin; viability z-score without drug: higher = more viable cells with knock-down alone
Hit rule: 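a pool counts as active when its viability z-score with doxorubicin is -2 or below and its z-score without drug lies between -2 and 2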
This is an unselected part of about 17,000 reagents tested. 788 of all reagents (4.7%) count as active. 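Calls rest on z-score classes alone; an extra cut-off of viability at most 70% of control was not applied to them.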 Further read-outs or replicates are left out here.

Gigyf2 showed combined z-score class no change with or without drug; viability z-score with doxorubicin -1.12; viability z-score without drug 0.34; inactive. Pantr1 scored combined z-score class no change with or without drug; viability z-score with doxorubicin -1.35; viability z-score without drug 0.17; inactive. For Ranbp3l the deposit lists combined z-score class no change with or without drug; viability z-score with doxorubicin -0.45; viability z-score without drug -0.51; inactive. For Trdmt1, the entry reads combined z-score class no change with or without drug; viability z-score with doxorubicin 1.12; viability z-score without drug -0.34; inactive. Or9k2b showed combined z-score class no change with or without drug; viability z-score with doxorubicin -0.9; viability z-score without drug -0.34; inactive. After knock-down of Nceh1, the record shows combined z-score class no change with or without drug; viability z-score with doxorubicin -0.9; viability z-score without drug 0.51; inactive.

Sirt6 gave combined z-score class no change with or without drug; viability z-score with doxorubicin 0.9; viability z-score without drug 0.17; inactive. With knock-down of Kat7 the results were combined z-score class high cell count with doxorubicin only; viability z-score with doxorubicin 2.02; viability z-score without drug -0.51; inactive. For Slc2a8 the deposit lists combined z-score class no change with or without drug; viability z-score with doxorubicin 0; viability z-score without drug 0.67; inactive. Against Riiad1 the deposit lists combined z-score class no change with or without drug; viability z-score with doxorubicin -1.12; viability z-score without drug -0.17; inactive. With knock-down of Ppfia2 the results were combined z-score class no change with or without drug; viability z-score with doxorubicin -0.45; viability z-score without drug 1.18; inactive. After knock-down of Lefty1, the record shows combined z-score class high cell count with and without drug; viability z-score with doxorubicin 2.14; viability z-score without drug 2.19; inactive.

After knock-down of Atr the results were combined z-score class no change with or without drug; viability z-score with doxorubicin -0.22; viability z-score without drug -1.01; inactive. Silencing of Mt1 gave: combined z-score class high cell count with and without drug; viability z-score with doxorubicin 2.14; viability z-score without drug 2.87; inactive. Against Rab39a the deposit lists combined z-score class no change with or without drug; viability z-score with doxorubicin 0.45; viability z-score without drug -0.17; inactive. Depletion of Parm1 came out at: combined z-score class no change with or without drug; viability z-score with doxorubicin -0.34; viability z-score without drug -0.34; inactive. Depletion of Pcca resulted in: combined z-score class no change with or without drug; viability z-score with doxorubicin 1.35; viability z-score without drug 0.51; inactive. With knock-down of Cacna1s, the record shows combined z-score class no change with or without drug; viability z-score with doxorubicin -0.22; viability z-score without drug -0.17; inactive.

Silencing of Atp1a3 resulted in: combined z-score class no change with or without drug; viability z-score with doxorubicin 0; viability z-score without drug -0.51; inactive. After knock-down of Shank3, the record shows combined z-score class no change with or without drug; viability z-score with doxorubicin -1.12; viability z-score without drug -0.51; inactive. Sptbn1 showed combined z-score class high cell count without drug only; viability z-score with doxorubicin -1.01; viability z-score without drug 3.71; inactive. Prss8 showed combined z-score class no change with or without drug; viability z-score with doxorubicin 0.22; viability z-score without drug 1.52; inactive. Knock-down of Ncf4 resulted in: combined z-score class low cell count with doxorubicin only; viability z-score with doxorubicin -2.92; viability z-score without drug -1.69; active. Hoxa9 gave combined z-score class no change with or without drug; viability z-score with doxorubicin -1.91; viability z-score without drug -0.84; inactive.

With knock-down of Or4e5, the record shows combined z-score class no change with or without drug; viability z-score with doxorubicin 0; viability z-score without drug -1.18; inactive. Against Atp7a the deposit lists combined z-score class no change with or without drug; viability z-score with doxorubicin -1.57; viability z-score without drug -0.17; inactive. For Pwwp3b, the values are combined z-score class no change with or without drug; viability z-score with doxorubicin 0.45; viability z-score without drug 1.52; inactive. Tcl1b5 gave combined z-score class no change with or without drug; viability z-score with doxorubicin -0.11; viability z-score without drug -0.17; inactive.

Part of the list above, set out differently:
| target | combined z-score class | viability z-score with doxorubicin | viability z-score without drug | Call |
| --- | --- | --- | --- | --- |
| Trdmt1 | no change with or without drug | 1.12 | -0.34 | inactive |
| Or9k2b | no change with or without drug | -0.9 | -0.34 | inactive |
